Experimental data taken from PubChem BioAssay AID1671190 (National Center for Advancing Translational Sciences (NCATS), 2021).
Screen size: about 580,000 compounds; about 6,100 (1.1%) were called active. The inconclusive results got no clear call from the source; some entries with a clear call stand among them for comparison. Calls come from the whole dose curve; as a rule, active = well fitted inhibition curve with a large enough effect; inconclusive = small, poorly fitted or top-dose-only effect, or another doubt; inactive = no such curve, though single readings can be large or run the other way. A potency beside an inconclusive call is a rough fit, not a confirmed value.

The chains behind the UniProt entries cited, without tags or fusion partners. Where a name states a change or a piece, a line headed by the entry shows the natural chain unless it says otherwise.
UniProt P18054: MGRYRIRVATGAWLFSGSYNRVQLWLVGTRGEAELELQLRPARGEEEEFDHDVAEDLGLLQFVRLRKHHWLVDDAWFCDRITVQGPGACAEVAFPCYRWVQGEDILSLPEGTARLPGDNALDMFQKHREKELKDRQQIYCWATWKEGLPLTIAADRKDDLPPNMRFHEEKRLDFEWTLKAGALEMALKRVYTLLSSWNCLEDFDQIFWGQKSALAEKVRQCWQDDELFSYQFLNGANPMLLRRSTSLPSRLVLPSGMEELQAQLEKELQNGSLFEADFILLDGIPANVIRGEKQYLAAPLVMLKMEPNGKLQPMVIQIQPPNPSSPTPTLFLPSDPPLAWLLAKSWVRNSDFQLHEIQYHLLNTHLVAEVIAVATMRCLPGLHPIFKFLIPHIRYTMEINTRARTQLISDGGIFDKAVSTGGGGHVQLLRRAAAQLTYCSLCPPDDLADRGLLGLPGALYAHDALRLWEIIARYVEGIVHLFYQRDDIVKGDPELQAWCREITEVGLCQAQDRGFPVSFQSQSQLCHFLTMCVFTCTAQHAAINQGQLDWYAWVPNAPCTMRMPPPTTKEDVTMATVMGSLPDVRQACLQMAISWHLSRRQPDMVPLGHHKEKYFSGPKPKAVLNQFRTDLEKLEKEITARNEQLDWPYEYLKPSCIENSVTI

What follows are compounds tested against Polyunsaturated fatty acid lipoxygenase ALOX12 (Homo sapiens) (UniProt P18054) (assay: Primary qHTS assay for inhibitors of human arachidonate 12S-lipoxygenase (ALOX12): Round 2). Conditions: purified 12hLO, xylenol orange hydroperoxide absorbance; activity change, negative = inhibition: at 108 µM (top of the series).
In short: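 Purified human 12hLO (150 nM final) in 25 mM Hepes, 0.01% Triton X-100, pH 7.0 was preincubated 15 min at room temperature with compound. Then 40 uM arachidonic acid was added, 30 min. Hydroperoxide was read by Fe-XO absorbance ratio 573/405 nm.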
% is set by controls: 0 for no effect and ±100 for the full control effect; potency is the fitted concentration of half-maximal effect.

Row | SMILES | Potency | activity change, negative = inhibition
1 | O=C(O)[C@@H]1C[C@H]2C[C@@H](CP(=O)(O)O)CC[C@H]2CN1 | inconclusive: 20 µM [inhibitor, partial curve, poor fit] | –
2 | COc1cccc(-n2c(CN3CCOCC3)nc3ccc([N+](=O)[O-])cc3c2=O)c1 | inconclusive: 17.8 µM [inhibitor, full curve] | –
3 | COC(=O)C1=C(c2ccc(-c3ccccc3)c(F)c2)C[C@@H]2CC[C@H]1N2C(=O)N1CCC(O)CC1 | inactive | –
4 | CS(=O)(=O)c1ccc(C2=C(CNC(=O)c3cccs3)[C@H]3CC[C@@H](C2)N3Cc2ccco2)cc1 | inconclusive: 35.5 µM [inhibitor, single point] | –
5 | COCCNCCOc1ccc(C(C)(C)c2ccccc2)cc1 | inactive | –
6 | CCCNC(=O)OC[C@H]1C[C@@H]2CCN1C[C@@H]2c1cc(-c2ccc(F)cc2)nn1C | inconclusive: 100 µM [inhibitor, partial curve, poor fit] | –
7 | CN(Cc1ccccc1)C[C@H]1CN2CC[C@H]1C[C@@H]2CNC(=S)Nc1ccc(N(C)C)cc1 | inactive | –
8 | NN=C(N)N | inconclusive: 35.5 µM [inhibitor, single point] | –
9 | CN1CCN(Cc2ccc(Br)s2)CC1 | inconclusive: 0.224 µM [inhibitor, full curve, poor fit] | –
10 | Cc1cc(Cl)ccc1C(=O)C1CCCN(C2CCSCC2)C1 (stereo not drawn) | inactive | –
11 | OC(CN(Cc1ccccc1)Cc1ccccc1)c1ccc2cc[nH]c2c1 (stereo not drawn) | inconclusive: 28.2 µM [inhibitor, partial curve, poor fit] | –
12 | CNS(=O)(=O)c1ccc(N=Cc2c(O)n(-c3cccc(C)c3)c(=O)[nH]c2=O)cc1 | inconclusive: 89.1 µM [inhibitor, single point] | –
13 | COc1cc2c(cc1OCc1ccncc1)NC(=O)C21CCN(C(=O)C2CCC2)CC1 | inconclusive: 12.6 µM [inhibitor, full curve, poor fit] | –
14 | O=C(CCl)NCNC(=O)CCl | inconclusive: 10 µM [inhibitor, partial curve, poor fit] | –
15 | COC(=O)c1ccc(NC(=O)N2[C@H]3CC[C@@H]2c2cnc(-c4ccc(F)cc4)nc2C3)cc1 | inactive | –
16 | COc1ccc(N2C(=O)NC(=O)/C(=C\c3ccc([N+](=O)[O-])s3)C2=O)cc1 | active: 44.7 µM | –
17 | COc1ccc(CCNC(C)CCc2ccc(OC)cc2)cc1 (stereo not drawn) | inconclusive: 44.7 µM [inhibitor, partial curve, poor fit] | –
18 | O=C1NCN(c2ccccc2)C12CCN(C(c1ccccc1)c1nnnn1C1CCCC1)CC2 (stereo not drawn) | inconclusive: 50.1 µM [inhibitor, partial curve, poor fit] | –
19 | COc1ccc(CN2Cc3cnnn3-c3ccccc3C2C#N)cc1 (stereo not drawn) | inconclusive: 35.5 µM [inhibitor, single point] | –
20 | CCCCOC(=O)COc1cc(C)cc2oc(=O)c3c(c12)CCC3 | inconclusive: 126 µM [inhibitor, partial curve, poor fit] | –
21 | NCC(c1ccc(Cl)cc1)N1CCCC1 (stereo not drawn) | inconclusive: 2 µM [inhibitor, full curve, poor fit] | –
22 | CN(C)[C@@H]1C(=O)C(C(N)=O)=C(O)[C@@]2(O)C(=O)C3=C(O)c4c(O)cccc4[C@@](C)(O)C3[C@H](O)C12 (stereo partly drawn) | inconclusive: 7.08 µM [inhibitor, partial curve, poor fit] | –
23 | COc1ccc(OCC(=O)N2CCN(Cc3c[nH]c4ccccc34)CC2)cc1 | inconclusive: 1.41 µM [inhibitor, full curve] | –

Row | SMILES | Potency | activity change, negative = inhibition
24 | CC(C)C(=O)N1CC[C@@H]2COCCN(Cc3cccnc3)[C@@H]2C1 | inactive | –
25 | N#CC(C#N)=Cc1c[nH]c2ccccc12 | inconclusive: 79.4 µM [inhibitor, partial curve, poor fit] | –
26 | CCCC[N+]12CCC(CC1)C(=C(c1ccccc1)c1ccccc1)C2 | inconclusive: 50.1 µM [inhibitor, partial curve, poor fit] | –
27 | C#CCN(C)C[C@H]1CN2CC[C@H]1C[C@@H]2CNS(=O)(=O)c1ccc(C)cc1 | inactive | –
28 | CCNc1cc(N2CCN(C)CC2)ccc1[N+](=O)[O-] | inactive | –
29 | COc1cccc(-n2c(/C=C/c3ccc(O)c(O)c3)nc3ccccc3c2=O)c1 | active: 31.6 µM | –
30 | CCOC(=O)[C@]12Cc3cc(C)ccc3[C@H]1N(C)C(=O)c1ccccc12 | inconclusive: 39.8 µM [inhibitor, partial curve, poor fit] | –
31 | CCOC(=O)c1cc(C(O)(C(=O)OC)C(F)(F)F)c(/N=C/N(C)C)o1 (stereo not drawn) | inconclusive: 44.7 µM [inhibitor, single point] | –
32 | COc1ccc(N2C(=O)/C(=C/c3cc(C)n(-c4ccc(C)cn4)c3C)C(=O)NC2=S)c(OC)c1 | active: 35.5 µM | –
33 | Cc1ccc(CNCCc2c[nH]c3ccccc23)cc1 | inconclusive: 35.5 µM [inhibitor, partial curve] | –
34 | COc1ccc(C(C#N)C(C)=O)cc1 (stereo not drawn) | inconclusive: 50.1 µM [inhibitor, partial curve, poor fit] | –
35 | Cc1cnc(N2CC3CCC(C2)N3CC(F)(F)F)c([N+](=O)[O-])c1 | inconclusive: 63.1 µM [inhibitor, partial curve, poor fit] | –
36 | COC(=O)C1=C(c2ccc(F)cc2F)C[C@@H]2CC[C@H]1N2C(=O)NCc1ccc(F)cc1 | inconclusive: 126 µM [inhibitor, partial curve, poor fit] | –
37 | COc1ccc2[nH]c(C)c(CCNCc3ccc(C(F)(F)F)cc3)c2c1 | inconclusive: 2.24 µM [inhibitor, full curve, poor fit] | –
38 | CCOP(=O)(OCC)C(c1ccccc1)N(C)C=O (stereo not drawn) | inactive | –
39 | COc1ccccc1N1C(=O)NC(=O)/C(=C\c2cnn(-c3ccccc3)c2)C1=O | inconclusive: 56.2 µM [inhibitor, partial curve, poor fit] | –
40 | CN(C)CCNC(=O)c1cccn(Cc2cccc(C(F)(F)F)c2)c1=O | inconclusive: 126 µM [inhibitor, single point] | –
41 | CCCCN1C(=O)NC(=O)/C(=C/c2cnc(SC)nc2)C1=O | inactive | –
42 | NC(=O)OCCCc1ccccc1 | inactive | –
43 | O=C(N/N=C/c1c(O)n(C2CC2)c(=S)[nH]c1=O)c1ccccc1 | inconclusive: 39.8 µM [inhibitor, partial curve, poor fit] | –
44 | O=C1NC(=O)N(CCC2=CCCCC2)C(=O)/C1=C\c1cccs1 | inconclusive: 35.5 µM [inhibitor, partial curve] | –
45 | Cc1cc(C)nc(SC(Cl)(Cl)Cl)n1 | inconclusive: 5.62 µM [inhibitor, full curve, poor fit] | –
46 | Cc1ccc(N2C(=O)NC(=O)/C(=C/c3cnc(-c4ccccc4)nc3)C2=O)cc1C | inconclusive: 31.6 µM [inhibitor, partial curve] | –

Row | SMILES | Potency | activity change, negative = inhibition
47 | O=C(O)CN1C(=O)CN=C(c2ccccn2)c2cc(Cl)ccc21 | inactive | –
48 | Cc1ccc(CN2CC[C@H]3CC[C@@H](C2)N3)s1 | inactive | –
49 | CC#CP(=O)(OCC)C(O)(c1ccccc1)C(F)(F)F (stereo not drawn) | inconclusive: 0.562 µM [inhibitor, full curve, poor fit] | –
50 | NC1CCc2cc(O)c(O)cc2C1 (stereo not drawn) | inconclusive: 39.8 µM [inhibitor, full curve, poor fit] | –
51 | CN1C(=O)/C(=C\c2ccc(N3CCCCC3)o2)C(=O)NC1=S | inactive | –
52 | CCOP(=S)(OCC)c1ccc(N(C)C)cc1 | inactive | –
53 | Cc1c(C(=O)C(=O)N2CCOCC2)c2ccccc2n1Cc1ccccc1 | – | inconclusive: -32.9% [inhibitor]
54 | COc1ccc(NC(=O)N2[C@H]3CC[C@@H]2c2cncnc2C3)cc1F | inactive | –
55 | O=C1NC2(Cc3ccccc31)CN(Cc1cccnc1)C2 | – | inactive: 0.646% [at 12.5 µM]
56 | COc1cc(CNC2CN3CCC2CC3)ccc1OCc1c(F)cccc1Cl (stereo not drawn) | inconclusive: 35.5 µM [inhibitor, partial curve, poor fit] | –
57 | O=C(N[C@H]1N=C(c2ccccc2F)c2cccc3c2N(CC3)C1=O)c1cc2ccccc2[nH]1 | – | inactive: -8.23% [at 22.9 µM]
58 | COc1ccc(CCN(C)Cc2cc(C(C)(C)C)c(O)c(C(C)(C)C)c2)cc1OC | active: 7.94 µM | –
59 | CC(C(=O)c1c[nH]c2ccccc12)N(Cc1ccc(F)cc1)C1CC1 (stereo not drawn) | inconclusive: 12.6 µM [inhibitor, full curve] | –
60 | O=c1c2ccccc2[se]c2ccccc12 | inactive | –
61 | CN(C)Cc1cn(C[C@H]2CC3CCN2C[C@@H]3C(=O)NCc2ccc3c(c2)OCO3)nn1 (stereo partly drawn) | inactive | –
62 | O=C1CC(=O)N(c2cccc(Cl)c2)C(=O)N1 | inconclusive: 35.5 µM [inhibitor, partial curve, poor fit] | –
63 | CCOC(=O)[C@@H]1[C@H]2COc3ccc(Br)cc3[C@@H]2N2C(=O)N(c3cccc(C)c3)C(=O)[C@]12C | inactive | –
64 | O=C(N1[C@H]2CC[C@@H]1c1cnc(-c3ccc(F)cc3)nc1C2)C1(c2ccccc2)CC1 | inactive | –
65 | O=[N+]([O-])c1ccccc1CNCCc1ccc(F)cc1 | inconclusive: 1.58 µM [inhibitor, full curve] | –
66 | CS(=O)(=O)N1CCC2(CCCN(Cc3ccncc3)C2)CC1 | inconclusive: 28.2 µM [inhibitor, single point] | –
67 | CC(C)(C)n1nnnc1C(c1cccs1)N1CCC2(CC1)C(=O)NCN2c1ccccc1 (stereo not drawn) | inconclusive: 158 µM [inhibitor, partial curve, poor fit] | –
68 | COc1ccccc1C1=NCC(=O)N(CC(=O)Nc2ccccc2)c2sc3c(c21)CCCC3 | inactive | –

Some of the entries so far, in CSV form.
Row,SMILES,Potency,"activity change, negative = inhibition"
59,CC(C(=O)c1c[nH]c2ccccc12)N(Cc1ccc(F)cc1)C1CC1 (stereo not drawn),"inconclusive: 12.6 µM [inhibitor, full curve]",–
60,O=c1c2ccccc2[se]c2ccccc12,inactive,–
61,CN(C)Cc1cn(C[C@H]2CC3CCN2C[C@@H]3C(=O)NCc2ccc3c(c2)OCO3)nn1 (stereo partly drawn),inactive,–
